Data reported in the supplement of paper PMC10735217.
Structures can show the parent of a compound that is named as a salt. This is one part of the list. Repeats in this data set agree poorly, so a single value says little.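 In a drug-repurposing library screen, luminescence reads luciferase driven by eight TEAD-binding elements, stably integrated into human kidney-derived cells. Compounds scoring over five robust Z scores above the plate mean are called hits.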

Tested on: HEK293A TEAD-LUC reporter
Experiment: TEAD-luciferase reporter activity (YAP activation), robust Z score vs plate; higher = stronger YAP/TEAD activation
Conditions: 24 h

Row | SMILES | TEAD-luciferase reporter activity (compound concentration: 200 nM) | TEAD-luciferase reporter activity (compound concentration: 2 uM) | TEAD-luciferase reporter activity (compound concentration: 10 uM)
1 | CC(C)(CC1Cc2ccccc2C1)NC[C@@H](O)COc1cc(CCC(=O)O)cc(F)c1F [ronacaleret hydrochloride] | inactive: 0.124 | inactive: -0.417 | inactive: 0.161
2 | COc1ccccc1-c1nc(Nc2ccccc2)cn1-c1ccccc1OC | inactive: 1.09 | inactive: -0.589 | inactive: 1.01
3 | C[C@]12C=CC(=O)N[C@@H]1CC[C@@H]1[C@@H]2CC[C@]2(C)[C@@H](C(=O)Nc3cc(C(F)(F)F)ccc3C(F)(F)F)CC[C@@H]12 [dutasteride] | inactive: -1.64 | inactive: 2.78 | inactive: 3.07
4 | CCOC(=O)C(CCCC1Cc2ccccc2O1)N[C@@H](C)C(=O)N1CCC[C@H]1C(=O)O (some centres undefined) | inactive: -0.1 | inactive: 0.614 | inactive: 0.2
5 | N[C@@H](CC(=O)NO)C(=O)O | inactive: -0.591 |  | inactive: 1.69
6 | COc1cc(O)c(CC=C(C)C)c(O)c1C(=O)/C=C/c1ccc(O)cc1 [Xanthohumol] | inactive: -1.34 | inactive: 0.508 | inactive: -0.983
7 | O=C(O)c1ccccc1C(=O)Nc1ccc(S(=O)(=O)Nc2nccs2)cc1 | active: 8.42 | inactive: -1.07 | inactive: 0.191
8 | [Cl][Mg][Cl] [Magnesium Chloride] | inactive: -1.44 | inactive: -0.896 | inactive: 2
9 | CNC(=O)C1CCCN(c2nc3ncccc3o2)C1 (centres undefined) | inactive: -0.629 |  | inactive: 2.11
10 | COc1ccc2c(C3COC(CCCNC(=O)OCC(N)=O)OC3)cccc2c1 (centres undefined) | inactive: -1.59 | inactive: -0.0532 | inactive: -1.02
11 | Cc1cc(NC(=O)CNC(c2ccccc2)c2ccccc2)n(-c2ccccc2)n1 | inactive: -0.165 | inactive: -0.709 | inactive: 0.776
12 | CC(C)N(Cc1ccccc1)C(=O)CN1C(=O)[C@@H](Cc2c[nH]c3ccccc23)c2nnc(-c3ccccc3)n2-c2ccccc21 | inactive: -0.543 | inactive: -0.264 | inactive: 3.22
13 | C[C@H](CCC(=O)O)[C@H]1CC[C@H]2[C@@H]3[C@H](O)C[C@@H]4C[C@H](O)CC[C@]4(C)[C@H]3C[C@H](O)[C@]12C | inactive: -0.454 | inactive: -0.928 | inactive: -0.0733
14 | CC(=O)NC[C@H]1CN(c2ccc(-c3cncs3)c(F)c2)C(=O)O1 | inactive: 0.2 | inactive: -0.623 | inactive: -0.188
15 | Cc1nn2c(c1-c1ccccc1)NC1=CCCC1=C2NCC(C)C | inactive: 0.437 | inactive: -1.9 | inactive: 0.333
16 | COc1ccc(Oc2cc(NCCC(F)(F)F)c3ncc(-c4ccc(C(=O)NC5CC5)c(C)c4)n3n2)c(F)c1F | inactive: -0.755 | inactive: -1.59 | inactive: -0.327
17 | CCCn1c(NC(=O)C2CCCN(c3cnccn3)C2)nc2ccccc21 (centres undefined) | inactive: -0.356 | inactive: -0.215 | inactive: -0.237
18 | CC1(C)CC=C(c2ccccc2)c2cc(C#Cc3ccc(C(=O)O)cc3)ccc21 | inactive: -0.566 | inactive: 0.67 | inactive: 0.0739

A portion from further up, as a working copy:
Row | SMILES | TEAD-luciferase reporter activity (compound concentration: 200 nM) | TEAD-luciferase reporter activity (compound concentration: 2 uM) | TEAD-luciferase reporter activity (compound concentration: 10 uM)
2 | COc1ccccc1-c1nc(Nc2ccccc2)cn1-c1ccccc1OC | inactive: 1.09 | inactive: -0.589 | inactive: 1.01
3 | C[C@]12C=CC(=O)N[C@@H]1CC[C@@H]1[C@@H]2CC[C@]2(C)[C@@H](C(=O)Nc3cc(C(F)(F)F)ccc3C(F)(F)F)CC[C@@H]12 [dutasteride] | inactive: -1.64 | inactive: 2.78 | inactive: 3.07
4 | CCOC(=O)C(CCCC1Cc2ccccc2O1)N[C@@H](C)C(=O)N1CCC[C@H]1C(=O)O (some centres undefined) | inactive: -0.1 | inactive: 0.614 | inactive: 0.2
5 | N[C@@H](CC(=O)NO)C(=O)O | inactive: -0.591 |  | inactive: 1.69
6 | COc1cc(O)c(CC=C(C)C)c(O)c1C(=O)/C=C/c1ccc(O)cc1 [Xanthohumol] | inactive: -1.34 | inactive: 0.508 | inactive: -0.983
7 | O=C(O)c1ccccc1C(=O)Nc1ccc(S(=O)(=O)Nc2nccs2)cc1 | active: 8.42 | inactive: -1.07 | inactive: 0.191
8 | [Cl][Mg][Cl] [Magnesium Chloride] | inactive: -1.44 | inactive: -0.896 | inactive: 2
9 | CNC(=O)C1CCCN(c2nc3ncccc3o2)C1 (centres undefined) | inactive: -0.629 |  | inactive: 2.11
10 | COc1ccc2c(C3COC(CCCNC(=O)OCC(N)=O)OC3)cccc2c1 (centres undefined) | inactive: -1.59 | inactive: -0.0532 | inactive: -1.02
11 | Cc1cc(NC(=O)CNC(c2ccccc2)c2ccccc2)n(-c2ccccc2)n1 | inactive: -0.165 | inactive: -0.709 | inactive: 0.776

Following part.

Row | SMILES | TEAD-luciferase reporter activity (compound concentration: 200 nM) | TEAD-luciferase reporter activity (compound concentration: 2 uM) | TEAD-luciferase reporter activity (compound concentration: 10 uM)
19 | CCOC(=O)C1=C(C)NC(C)=C(C(=O)OCCNC(=O)c2cccnc2)C1c1cccc([N+](=O)[O-])c1 (centres undefined) | inactive: -1.31 | inactive: -1.74 | inactive: 1.84
20 | COc1ccnc2[nH]cc(C(=O)C(=O)N3CCN(C(=O)c4ccccc4)C[C@H]3C)c12 | inactive: 0.761 | inactive: 1.26 | inactive: 0.245
21 | O=C(O)CSC(CCCc1ccccc1)c1ccc(OCc2ccc3ccccc3n2)cc1 (centres undefined) | inactive: -0.984 | inactive: -1.13 | active: 8.04
22 | COc1cc(Cc2cnc(N)nc2N)c2cc(Cc3c(C(=O)N(C)C)[nH]c4ccc(Cl)cc34)oc2c1OC | inactive: 1.31 | inactive: -0.229 | inactive: -1.87
23 | Cc1nc(-c2ccc(C(F)(F)F)cc2)sc1COc1ccc(C(=O)O)c(Cl)c1 | inactive: -1.68 | inactive: -0.936 | inactive: -0.713
24 | CN(Cc1ccc2ccccc2n1)C[C@H](O)COc1ccc(NS(C)(=O)=O)cc1 | inactive: 1.22 | inactive: 0.749 | inactive: 0.955
25 | CN1CCCC(n2nc(Cc3ccc(Cl)cc3)c3ccccc3c2=O)CC1 (centres undefined) [azelastine hydrochloride] | inactive: -0.35 | inactive: -0.828 | inactive: 1.39
26 | CCCCCCCOc1ccc(CCC(N)(CO)CO)cc1C(F)(F)F | inactive: 1.73 | inactive: -1.14 | inactive: -0.839
27 | CCCCC[C@@](C)(O)/C=C/[C@H]1[C@H](O)CC(=O)[C@@H]1C/C=C\CCCC(=O)O [Arbaprostil] | inactive: 0.0601 | inactive: -1.07 | inactive: -0.881
28 | CC(=O)OCC(=O)[C@@]1(OC(C)=O)[C@@H](C)C[C@H]2[C@@H]3C[C@H](F)C4=CC(=O)C=C[C@]4(C)[C@@]3(F)[C@@H](O)C[C@@]21C [diflorasone diacetate] | inactive: -0.463 | inactive: -0.811 | inactive: 1.19
29 | Cc1cc(C(=O)N(C)[C@H](CN2CC(O)C2)C(C)C)ccc1F | inactive: -0.61 | inactive: 0.364 | inactive: -1.61
30 | N#CC1=C(N)Oc2cc(O)ccc2C1c1cccc(F)c1 (centres undefined) | inactive: 3.3 | inactive: -0.259 | inactive: -1.47
31 | C=CCc1cc(-c2cc(CC=C)c(O)c(CN(CC)CC)c2)cc(CN(CC)CC)c1O | inactive: -2.6 | inactive: -0.264 | inactive: 1.32
32 | N=C(c1ccc(C(=O)Nc2ccc3c(c2)CC(CC(=O)O)CO3)cc1)N1CCOCC1 (centres undefined) | inactive: -2.49 | inactive: -0.34 | inactive: 3.25
33 | CN(CC1CC1)C1CCc2ccccc21 (centres undefined) | inactive: 0.355 |  | inactive: 0.465
34 | O=C(O)COC(=O)Cc1ccccc1Nc1c(Cl)cccc1Cl | inactive: 2.58 |  | inactive: 0.251
35 | O=C(O)COC(=O)Cc1ccccc1Nc1c(Cl)cccc1Cl [Aceclofenac] |  | inactive: -0.203 | 
